The results in this text go back to article PMC11892261.

Chains of the proteins cited; added tags and fusions are not shown.
UniProt P14618: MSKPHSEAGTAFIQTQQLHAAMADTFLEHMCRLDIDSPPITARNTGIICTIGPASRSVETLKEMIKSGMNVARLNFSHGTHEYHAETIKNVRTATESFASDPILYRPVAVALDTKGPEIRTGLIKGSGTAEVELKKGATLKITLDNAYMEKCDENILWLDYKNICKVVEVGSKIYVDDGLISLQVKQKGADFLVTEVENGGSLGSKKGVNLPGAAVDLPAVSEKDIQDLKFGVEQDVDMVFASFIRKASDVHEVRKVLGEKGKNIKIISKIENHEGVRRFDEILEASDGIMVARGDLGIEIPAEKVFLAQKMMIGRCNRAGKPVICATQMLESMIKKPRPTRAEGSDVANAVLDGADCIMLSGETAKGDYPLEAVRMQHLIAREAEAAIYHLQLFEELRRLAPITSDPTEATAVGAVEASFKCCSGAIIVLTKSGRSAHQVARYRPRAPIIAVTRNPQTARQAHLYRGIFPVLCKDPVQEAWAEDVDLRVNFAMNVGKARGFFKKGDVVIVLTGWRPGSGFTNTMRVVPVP

The target in this assay is T1, Flag-tagged NONO (UniProt Q15233).
T1 sequence: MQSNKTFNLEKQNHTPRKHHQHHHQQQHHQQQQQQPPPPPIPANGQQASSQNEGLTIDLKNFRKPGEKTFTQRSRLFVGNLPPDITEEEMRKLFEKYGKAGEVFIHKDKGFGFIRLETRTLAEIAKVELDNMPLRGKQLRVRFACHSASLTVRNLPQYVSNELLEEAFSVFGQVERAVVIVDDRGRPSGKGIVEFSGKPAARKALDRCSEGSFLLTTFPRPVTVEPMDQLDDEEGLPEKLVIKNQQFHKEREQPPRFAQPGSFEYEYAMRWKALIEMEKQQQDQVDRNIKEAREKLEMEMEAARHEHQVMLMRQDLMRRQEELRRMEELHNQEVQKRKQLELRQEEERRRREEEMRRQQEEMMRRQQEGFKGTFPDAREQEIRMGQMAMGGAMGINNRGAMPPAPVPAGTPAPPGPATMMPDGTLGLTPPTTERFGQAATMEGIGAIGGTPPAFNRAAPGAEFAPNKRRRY
Kind of assay: co-IP; anti-Flag M2 Sepharose beads on lysates of MDA-MB-231 and BT-549 cells overexpressing the Flag-tagged protein; endogenous partner found by blot; IgG as negative control.

No constants are given. Whether binding was seen depends on the method and setting. Binding seen in cells or lysates may run through a third protein. Some results given as binding are weak or reduced against the parent protein; the word gives no strength. Where a sequence is shown, tags or fusion partners need not be part of it.

Turning to “PKM2 (pyruvate kinase isozyme type M2), endogenous (from UniProt P14618 1-531)”, the binding result is “binds”.
